The values below come from paper PMC3907333.

Assay [1] deals with T1, GST-Bag102 BAG domain (122-206) (S. pombe) (UniProt O59739).
T1 sequence: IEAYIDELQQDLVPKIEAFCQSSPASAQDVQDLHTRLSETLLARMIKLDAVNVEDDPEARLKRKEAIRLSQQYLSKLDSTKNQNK
Put plainly: pull-down; GST fusion proteins on glutathione Sepharose 4 beads (1 mg/mL, 20 µL beads) in 1 mL cleared extract of S. pombe expressing Pad1/Rpn11 with a Protein A ZZ-tag; buffer A (25 mM Tris/HCl pH 7.5, 50 mM NaCl, 2 mM MgCl2, 5 mM ATP, 10% glycerol, 0.1% Triton X-100, 2 mM DTT); overnight at 4°C; blots for Hsp70, the ZZ-tag and 20S α subunits; only the target purified.

In assay [2] the target is T2, GST-Bag102 ΔTM (31-206) (S. pombe) (UniProt O59739).
T2 sequence: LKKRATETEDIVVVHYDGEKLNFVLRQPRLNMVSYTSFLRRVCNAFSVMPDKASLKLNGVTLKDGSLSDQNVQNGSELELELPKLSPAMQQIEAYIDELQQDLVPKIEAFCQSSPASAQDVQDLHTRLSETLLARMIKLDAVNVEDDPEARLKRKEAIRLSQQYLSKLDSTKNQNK
The description is as above.

Assay [3] deals with T3, GST-Bag101 BAG domain (78-190) (S. pombe) (UniProt O60125).
T3 sequence: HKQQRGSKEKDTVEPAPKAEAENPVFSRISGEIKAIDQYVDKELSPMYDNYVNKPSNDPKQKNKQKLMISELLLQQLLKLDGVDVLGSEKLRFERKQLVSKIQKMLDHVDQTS
The assay is described as above.

The target of assay [4] is T4, GST-Bag101 (full length) (S. pombe) (UniProt O60125).
T4 sequence: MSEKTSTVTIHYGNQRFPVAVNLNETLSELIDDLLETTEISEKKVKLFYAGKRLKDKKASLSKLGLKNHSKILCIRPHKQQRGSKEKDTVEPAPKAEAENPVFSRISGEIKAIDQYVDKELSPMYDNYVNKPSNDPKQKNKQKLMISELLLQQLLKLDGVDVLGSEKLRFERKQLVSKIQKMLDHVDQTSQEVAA
The assay is described as above.

The target of assay [5] is Flag-tagged San1 (S. pombe). Put plainly: co-IP; V5-tagged Ubr11 or Flag-tagged San1 precipitated with antibodies to V5 or Flag from S. pombe cells treated with Bortezomib; control antibody; blot for HA (Spc7).

These are yes or no findings as the source states them, for the method shown. Binding seen in cells or lysates may run through a third protein. For some assays here: Binding calls can cover weak binding; strength is not graded here. For some assays here: Sequences can lack the tags named with a protein.

Regarding “Hsp70 (S. pombe nuclear/cytosolic Hsp70 type chaperones)”, the binding result in assay [1], in assay [2], in assay [3] and in assay [4] was “binds” in each case.

B1: Spc7-3HA (wild type) (protein, UniProt O59757 1-1364)
chain: MPTSPRRNSIATTDNVIGRNKSRKRPHSLGGPGALQELKEHTNPAKGILKSYSSFSVDPAFTGDEDFNDIHTQINNTVIGISSNVMAASKRLQMEDLQQLSRETSRKSLNRRVSFASHARVRWYPKDHQSDSEKSTSNHSTPERTFASDAKNHSPKGPTTTSFSRNETQSSPHSHSASIISDGSDMDIASPIRSTESDMVSEALNAGHPPPSLYPENDDLSIQNPTKALPEAEKALDVHDATREQVNDREETNMDLTIQFQEADSFLSHSESIKGLSSSEQGTVYSLKASHDPSNQTQLSSPNKSSSPTSIEISDFSKNNENHDQSENKEEEEDMMLTRPIEIPQHFSPIARPLTSQEAIVDMDITSNNINLSPVSHFSNGLDLQNLEEAPMNLTRPINANPHLTNHSPNDLTNGEEEMDTTSAFNIENSHLTLLSPIRPSSRSMEEQIMDLTQPISSTNAPTHLNEDDLNQFTSNISSSSKPRKDNNKTANSSKPIPDSEDFMDITRPFNILSPSKEALSEEQPMELTSTVFPCENSTSHLEVEEAAMDETVAFQIRGNNVELPSADKENAEREEIPSYSDKSENFNTTSFTNHERSPNGNNNLKFSKDPNSSSPSRHVVATPTDKLGTRKRRLRYSTSSFDQSTLRRNRLATIRNARKSISTLNDRELLPVNFFEKKVNSGLYKSVERSENYRLGATPLTAEKPFTTEKPLSSLPEEVSRQPTDDKGEQVSNADVDSGLSKTERLTIQQTNEIKHVPTNTTSSVKLPQQPSNEDEKERITTADYADSTSLERLESQEPNRNELVQVGSSNAGNTTSVGMNEHEKSPVKLSKGVSNVDTSLGASTINTNILNQDSGPNEEIPVGNEPEFDTMPTLPNVEPISLSDFLKMTGIEFLDNLTIAKRRETLLPNAEENKKCSIQELLESFYIQFPLLELYKFSCQQLQDYIAEGKDFVTKIEEETLKENPLLFYEYRKASSDMRVLMDSQFLMMKTFARLQAKGDWYEWREGLMQGIKHELNLNLTGMQRSLTHLMDVANVIHPYAQEIQERYNGSITTVQTLKKQKEFANQYDSTLLAQAQEKLEKLKVEVERRRRLLSEKEERRKELAIKIEQVTNSCSDLELRTNAEQDFYAKNQDFEFDEIKRYEEQLLNLKNELGWTIVSLTAGGIKLATNNTALSPYSAEVTVEILRQNFQVNVDIACKFPNESNACSSNVLEHVASSFSKWHSKVFSRNLRLLKKYLNDVSICWEQIVYLVQDFQRLWYHWPFLSVENDDKSIIINVELYLRSVSSKVKVVFGLPIDTIYQTTEVGKFYASTSVAVKQMYAESEGDSYVSEVLNTLSEVVHCTSTYALSSACLTVWNKYS
Regarding B1, in assay [5], the binding result is “no binding”.
